Measurements from PubChem BioAssay AID493014 (National Center for Advancing Translational Sciences (NCATS), 2011).
The other results are listed elsewhere or left out. The main result of the screen is listed elsewhere. These columns were measured beside it and carry no call. The list favours compounds with an active or inconclusive main result. Words in brackets tell the shape of the fitted curve; partial curves, single points and poor fits give uncertain potencies.

Experiment: qHTS Assay to Find Inhibitors of Chronic Active B-Cell Receptor Signaling
Details: ABC-DLBCL IkBa-CBG/CBR reporter, luminescence ratio (green luciferase fused to IkBa over red control in TMD8 lymphoma cells), 4 h
In short: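 TMD8 ABC-DLBCL cells carrying doxycycline-inducible green luciferase fused to IkappaBalpha plus unfused red luciferase were exposed to compounds (up to 46 uM) for 4 hrs at 37C. Activity came from the overlap-corrected green/red luminescence ratio.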

[1] = measured here: CBR red luminescence, cell number
[2] = measured here: IkBa-CBG green luminescence

SMILES | AC50 [1] | AC50 [2]
Cc1[nH]c2ccc(-c3nnc(SCC(=O)c4ccccc4F)o3)cc2c1C | 15.8 µM [rising, single point] | –
CCc1nnc(NC(=O)CSc2nc3cccnc3n2C2CCCCC2)s1 | 20.6 µM [falling, partial curve, poor fit] | –
O=C(c1sccc1-n1cccc1)N1CCCC1 | 0.146 µM [falling, full curve, poor fit] | –
Cc1cc(C)cc(NC(=S)NCC2CCN(C(C)c3ccccc3)C2)c1 (centres undefined) | 35.5 µM [falling, single point] | –
COc1ccc(C(c2sc3nc(C)nn3c2O)N2CCC3(CC2)OCCO3)cc1 (centres undefined) | 35.5 µM [rising, partial curve, poor fit] | –
O=C(CCC(=O)N(CC(=O)NC1CCCCC1)c1ccc(F)cc1)Nc1ccccn1 | 8.91 µM [falling, partial curve] | –
COc1ccc(N(C=O)C(=S)SC)cc1 | 20 µM [falling, single point] | –
CC(=O)N(c1ccccc1)c1c(F)c(F)c(F)c(F)c1F | 18.4 µM [falling, single point] | –
CC(=O)Oc1cccc(N2C(=O)C3C4C=CC(CC4)C3C2=O)c1 (centres undefined) | 0.501 µM [rising, full curve, poor fit] | –
Cn1cc(C(=O)O)c(-c2ccc3c(c2)OCCCO3)n1 | 10 µM [rising, partial curve, poor fit] | –
O=C(COc1ccc2ccccc2c1)Nc1ccc(Br)cc1C(=O)O | 5.62 µM [falling, partial curve] | –
O=C(NCCCCNC(=O)c1cccnc1Cl)c1cccnc1Cl | 2.24 µM [rising, full curve, poor fit] | –
O=C1CNC(=O)N1c1ccc(Cl)cc1 | 0.0891 µM [rising, full curve, poor fit] | –
O=C(CC1C(=O)NCCN1Cc1ccc(F)cc1Cl)NC1CCCCCCC1 (centres undefined) | 35.5 µM [falling, partial curve, poor fit] | –
Cc1ccc(C(=O)Nc2ccc3c4c(cccc24)CC3)cc1[N+](=O)[O-] | 2.59 µM [rising, full curve] | –
COc1ccc(NC(=O)Nc2cnccn2)cc1 | 35.5 µM [rising, single point] | –
COc1ccc(C(=O)Nc2cccc(OC)c2)cc1 | 11.2 µM [falling, partial curve] | –
C[C@@]12C(=O)Nc3cc(Cl)ccc3C(=O)N1[C@H]1c3cc(Br)ccc3OC[C@@H]1[C@@H]2c1ccccc1 | 4.11 µM [falling, full curve] | –
NC(=O)c1ccccc1NC(=O)c1ccccc1Cl | 35.5 µM [rising, single point] | –
O=[N+]([O-])c1ccc2c(c1)C(O)n1nc(-c3ccc(Cl)cc3Cl)nc1S2 (centres undefined) | 0.651 µM [rising, full curve] | –
O=C(/C=C/c1ccc(Cl)cc1)NCCc1ccccc1 | 4.61 µM [rising, partial curve] | –
O=S(=O)(NC1CCCCC1Oc1ccccc1)c1ccc(Cl)cc1 (centres undefined) | 5.8 µM [rising, partial curve, poor fit] | –

SMILES | AC50 [1] | AC50 [2]
COc1ccc(C2CC(=O)Oc3cc(OC)c(OC)c(OC)c32)cc1 (centres undefined) | 29.1 µM [rising, single point] | 16.4 µM [falling, partial curve]
O=C(Nc1ccc(Cl)cc1)[C@@H]1[C@@H]2C(=O)N(c3ccc(Cl)cc3)C(=O)[C@@H]2[C@H]2C=CC=NN21 | 9.2 µM [falling, partial curve, poor fit] | –
CC1=NN(c2ccccc2)C(=O)C1C(=O)c1cc([N+](=O)[O-])cc([N+](=O)[O-])c1 (centres undefined) | – | 14.1 µM [rising, partial curve, poor fit]
CCOC(=O)c1ccc(Nc2c(-c3ccc(OC)cc3)nc3nc[nH]n23)cc1 | 12.6 µM [falling, partial curve] | –
C/C(=N\N=C1\NC(=O)CS1)c1cccs1 | 22.4 µM [rising, single point] | –
COc1ccc(NC(=O)CCC(=O)NCCO)cc1 | 3.98 µM [rising, full curve, poor fit] | –
COC(=O)c1ccccc1NC(=O)C1CC=CCC1C(=O)O (centres undefined) | 10.3 µM [falling, partial curve] | –
C/C(=N\NC(=O)c1nn(C)c(C)c1Br)c1cccc(NC(=O)c2ccoc2C)c1 | 3.66 µM [falling, single point] | –
Cc1occc1C(=O)N/N=C/c1cccs1 | 10 µM [falling, partial curve] | –
O=C(O)CCC(=O)Nc1cccc2cccnc12 | 15.8 µM [falling, single point] | –
O=C(Nc1ccc(Cl)cc1)C1CCCN(c2cnccn2)C1 (centres undefined) | 11.2 µM [rising, partial curve, poor fit] | –
COc1cc(Cl)c(C)cc1NC(=O)COC(=O)c1cnc(C)cn1 | 29.1 µM [rising, single point] | –
CCNc1nc(NCC)nc(OCC(=O)O)n1 | 6.31 µM [rising, single point] | –
O=C(NCCCCc1ccccc1)C1CC(c2cccc(F)c2)=NO1 (centres undefined) | 5.62 µM [falling, single point] | –
O=C(Nc1ccc(Cl)cc1)Nc1ccc(S(=O)(=O)Nc2ncccn2)cc1 | 2.51 µM [rising, partial curve, poor fit] | –
CC(C)(C)NC(=O)NC(=O)CN1CCN(c2ncc(C(F)(F)F)cc2Cl)CC1 | 2.31 µM [falling, partial curve] | –
Cc1cc(=O)oc2cc(OC(=O)c3ccccc3)ccc12 | 0.282 µM [rising, full curve, poor fit] | –
Cc1cc(=O)[nH]c(SCC(=O)c2ccccc2)c1C#N | 4.47 µM [falling, full curve] | –
Nc1nc(Nc2ccccc2)sc1C(=O)c1ccccc1 | 11.2 µM [falling, partial curve] | –
c1ccc(CN2CCC(Nc3nc(-c4cccs4)nc4ccccc34)CC2)cc1 | 22.4 µM [falling, single point] | –
CCOc1ccc(N=c2oc3cc(O)ccc3cc2C(=O)NCC2CCCO2)cc1 (centres undefined) | 1.3 µM [falling, partial curve] | –
CCSc1nnc(C)n1-c1ccc(C(=O)O)cc1 | 6.51 µM [falling, single point] | –

Record cards, from the list above. Order of values: AC50 [1]	AC50 [2]
CCOC(=O)c1ccc(Nc2c(-c3ccc(OC)cc3)nc3nc[nH]n23)cc1 reads 12.6 µM [falling, partial curve]	–
O=C(NCCCCc1ccccc1)C1CC(c2cccc(F)c2)=NO1 (centres undefined) reads 5.62 µM [falling, single point]	–
Nc1nc(Nc2ccccc2)sc1C(=O)c1ccccc1 reads 11.2 µM [falling, partial curve]	–

Later entries

SMILES | AC50 [1] | AC50 [2]
COC(=O)Cc1[nH]n(-c2nc3ccccc3s2)c(=O)c1C(C)=Nc1ccc(C)cc1 | 7.94 µM [falling, partial curve, poor fit] | –
COc1cc(OC)c2c(c1)OC(=O)CC2c1cc(OC)c(OC)c(OC)c1 (centres undefined) | – | 13 µM [falling, partial curve]
Cc1ccccc1OC(=O)c1cccnc1 | 5.01 µM [rising, full curve, poor fit] | –
Cc1nnc(CN(C)C(=O)c2cc(COc3ccc(C)c(C)c3)on2)o1 | 14.1 µM [falling, partial curve, poor fit] | –
Cc1[nH]n(-c2ccccc2)c(=S)c1C=NCCCN=Cc1c(C)[nH]n(-c2ccccc2)c1=S | – | 4.61 µM [falling, single point]
O=C(NCCc1ccco1)C(=O)NCC1OCCCN1S(=O)(=O)c1ccc(F)cc1 (centres undefined) | 35.5 µM [rising, single point] | –
CC(=O)SC1CC(=O)N(c2c(C)cccc2C)C1=O (centres undefined) | 7.08 µM [falling, full curve] | –
O=C(N=Nc1c(O)[nH]c2ccccc12)c1cccc(S(=O)(=O)Nc2ccccc2Cl)c1 | 4.47 µM [falling, partial curve] | –
CCN(CC)C(=O)c1sc(NC(=O)C(C)C)c(C#N)c1C | 31.6 µM [rising, single point] | 1.41 µM [rising, partial curve, poor fit]
Cn1nnnc1SC1CC(=O)N(c2ccccc2)C1=O (centres undefined) | 35.5 µM [falling, single point] | 31.6 µM [rising, partial curve, poor fit]
CS(=O)(=O)Nc1cccc2cccnc12 | 28.2 µM [rising, single point] | 28.2 µM [falling, single point]
COc1cc(OC)c(NC(=O)C2CCCO2)cc1Cl (centres undefined) | 35.5 µM [rising, single point] | –
Cc1nnc(NC(=O)c2ccc(Br)cc2)s1 | 0.164 µM [rising, full curve, poor fit] | –
C/C(=N\NC(=O)c1cccnc1)c1ccc(OC2OCCOC2Oc2ccc(/C(C)=N/NC(=O)c3cccnc3)cc2)cc1 (centres undefined) | 35.5 µM [falling, single point] | –
COc1cc([N+](=O)[O-])ccc1NC(=O)NNC(=O)c1sccc1C | 8.91 µM [falling, partial curve] | –
COC(=O)c1sccc1NC(=O)CSCCc1ccccn1 | 12.6 µM [falling, single point] | –
CC(C)CC(C(=O)NC(C)(C)C)N(Cc1ccccc1Cl)C(=O)c1snc(C(N)=O)c1N (centres undefined) | 2 µM [rising, partial curve] | –
O=C(CCN1C(=O)/C(=C/c2cccs2)SC1=S)NNC(=O)c1cccc(O)c1 | 14.1 µM [falling, partial curve, poor fit] | –
CCOC(=O)C(=CN=C(N)Nc1nc2ccccc2o1)C(=O)OCC | 1.12 µM [falling, full curve] | –
COc1cc(F)c(C2=CC(=O)CC(C)(C)C2)cc1F | 3.26 µM [rising, partial curve, poor fit] | –
OCCNc1nc(Nc2cccc(O)c2)nc2ccccc12 | 17.8 µM [falling, single point] | –
